Experimental data taken from paper PMC12298810.

Key:
[1] = target: T1, OsCATC-MYC (rice (Oryza sativa)) (UniProt Q10S82); test: co-IP; OsAP4-HA co-expressed with OsCATA-MYC or OsCATC-MYC in N. benthamiana leaves; total proteins on MYC-tagged magnetic beads, 4 °C overnight, PBS washes; immunoblot with anti-MYC and anti-HA
T1 sequence: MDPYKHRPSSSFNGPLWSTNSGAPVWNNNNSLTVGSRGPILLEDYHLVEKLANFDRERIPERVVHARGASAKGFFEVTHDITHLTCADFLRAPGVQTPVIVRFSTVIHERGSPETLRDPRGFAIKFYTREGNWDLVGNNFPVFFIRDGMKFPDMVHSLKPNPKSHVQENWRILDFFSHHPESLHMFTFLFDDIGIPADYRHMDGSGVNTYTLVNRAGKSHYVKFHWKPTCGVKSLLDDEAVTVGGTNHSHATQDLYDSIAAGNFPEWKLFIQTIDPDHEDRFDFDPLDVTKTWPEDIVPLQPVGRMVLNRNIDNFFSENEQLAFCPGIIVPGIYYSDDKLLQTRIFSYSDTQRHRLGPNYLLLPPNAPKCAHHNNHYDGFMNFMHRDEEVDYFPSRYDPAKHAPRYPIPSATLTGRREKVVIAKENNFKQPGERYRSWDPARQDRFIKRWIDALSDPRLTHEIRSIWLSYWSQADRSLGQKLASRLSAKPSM

[2] = target: BD-OsAP4 (rice (Oryza sativa)); test: two-hybrid; BD-OsAP4 (pGBKT7, bait) with AD fusions (pGADT7, prey) in S. cerevisiae AH109; growth on SD/-Ade/-His/-Leu/-Trp/X-alpha-Gal
[3] = target: OsAP4-His (rice (Oryza sativa)); test: pull-down; purified OsAP4-His on His-tagged magnetic beads with OsCATA-GST or OsCATC-GST, 4 °C overnight, washed three times with PBS; immunoblot with anti-GST and anti-His; both purified
[4] = target: OsAP4-YFPN (rice (Oryza sativa)); test: split reporter; BiFC: OsAP4-YFPN with OsCATA-YFPC or OsCATC-YFPC in N. benthamiana leaves, 48 h, confocal microscopy

B1: AD-OsCATC (enzyme, UniProt Q10S82 1-492)
chain: T1 sequence
binding [2]: binds

B3: OsCATC-YFPC (enzyme, UniProt Q10S82 1-492)
chain: T1 sequence
binding [4]: binds

Continued, values first:

binding [1]: binds
Molecule: OsAP4-HA (rice (Oryza sativa)) (enzyme)

binding [3]: no binding
B2: OsCATC-GST (enzyme, UniProt Q10S82 1-492)
chain: T1 sequence

Results are given in words; binding and its absence hold for the method and conditions named. For some of these results: Binding calls can cover weak binding; strength is not graded here. For some of these results: Tags and fused reporters may be left off the sequences shown. For some of these results: Binding seen in cells or lysates may run through a third protein. Each block holds one molecule with its values, some of them ahead of it.
